Measured values taken from paper PMC7712654.
No constants are given. Whether binding was seen depends on the method and setting. Binding seen in cells or lysates may run through a third protein. For part of these data: A result given as binding can be weak or reduced; the word gives no strength. For part of these data: Sequences can lack the tags named with a protein.

Key:
[1] = target: CTI1-nYFP (Arabidopsis thaliana) (UniProt Q9C7S3); assay: split reporter; BiFC with split YFP in Arabidopsis protoplasts, confocal microscopy
[2] = target: α-CT-cLUC (Arabidopsis thaliana); assay: split reporter; split-luciferase in agroinfiltrated Nicotiana benthamiana leaves; 4 d continuous light, or 2 d light then 2 d dark, then 24 h recovery in the light; CCD imaging with D-luciferin

| binding [1] | binding [2] | Binder |
| --- | --- | --- |
| no binding | – | BCCP2 (BiFC) (protein, UniProt Q9LLC1 88-255) EFMAKVSGLLKLVDSKDIVELELKQLDCEIVIRKKEALQQAVPPAPVYHSMPPVMADFSMPPAQPVALPPSPTPTSTPATAKPTSAPSSSHPPLKSPMAGTFYRSPGPGEPPFVKVGDKVQKGQIVCIIEAMKLMNEIEAEKSGTIMELLAEDGKPVSVDTPLFVIAP |
| no binding | – | PTST2 (BiFC) (protein, UniProt Q9LFY0 72-532) CNGVSRMCNKRNLGWDSEGSKDLETEILEFMKNSEKPGMFPSKKDLIRSGRFDLVERIVNQGGWLSMGWDLDEQEEKVRVNENVTPQDLHIEKQLPNCNSPEMDKTLNHGDLDLSSNLSSSTEQVESRNDSGIEGILTRLEKERNLSLGISVRENGKSNGAMHDISPNGSVPWSSRIVTASEIQEVDGSRGSGEYAQSRYQGAKSVSGKPGLSDSPTSETWRTWSMRRAGFTDEDFEAAEISSSGLTGVKKDDTKKDSGDSMNGKDRIASSSEDVNKTHIKHRLQQLQSELSSVLHSLRSPPDKVVTSKDSETTAGNLENLSDDWEYKENEIIHAQNKLRSTRAKLAVLEGKMAMAIIDAQRIVREKQRRIDHASRALRLLRTASIVWPNSASEVLLTGSFDGWSTQRKMKKAENGVFSLSLKLYPGKYEIKFIVDGQWKVDPLRPIVTSGGYENNLLIIS |
| – | binds | CTI1-nLUC (protein, UniProt Q9C7S3 1-168) MASLSSTSLSLPKNSHQLHPSSGFSLNPNARCVSVSFGLNHSNKLHISAPRTKRILTIQSAYRDDDGSGSTGLFVGGFILGGLIVGALGCVYAPQISKAIAGADRKDLMRKLPKFIYDEEKALEKTRKVLAEKIAQLNSAIDDVSSQLKSEDTPNGAALSTDEIEATA |
